No constants are given. Whether binding was seen depends on the method and setting. For part of these data: Binding can be weak; no strength is given. Tags and fused reporters may be left off the sequences shown.
T1: AsaA 25th–110th aa fused to pBT (Acinetobacter baumannii ATCC 17978) (UniProt R9RHI2)
T1 sequence: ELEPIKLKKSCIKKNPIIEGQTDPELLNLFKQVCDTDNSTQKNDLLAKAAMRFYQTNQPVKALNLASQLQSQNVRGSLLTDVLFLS

T2: AsaA 110th–150th aa fused to pBT (Acinetobacter baumannii ATCC 17978) (UniProt R9RHI2)
T2 sequence: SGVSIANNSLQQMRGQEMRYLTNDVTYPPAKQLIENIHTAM

T3: AsaA 25th–150th aa fused to pBT (Acinetobacter baumannii ATCC 17978) (UniProt R9RHI2)
T3 sequence: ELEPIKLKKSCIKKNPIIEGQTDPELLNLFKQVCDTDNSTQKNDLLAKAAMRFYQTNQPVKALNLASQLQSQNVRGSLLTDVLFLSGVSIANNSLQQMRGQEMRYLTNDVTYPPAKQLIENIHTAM

T4: AsaA 25th–190th aa fused to pBT (Acinetobacter baumannii ATCC 17978) (UniProt R9RHI2)
T4 sequence: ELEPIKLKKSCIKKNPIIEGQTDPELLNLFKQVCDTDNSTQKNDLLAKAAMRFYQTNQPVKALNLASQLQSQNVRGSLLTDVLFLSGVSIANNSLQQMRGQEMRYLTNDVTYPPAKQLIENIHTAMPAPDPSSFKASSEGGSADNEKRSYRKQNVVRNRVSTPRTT

T5: AsaA 25th–70th aa fused to pBT (Acinetobacter baumannii ATCC 17978) (UniProt R9RHI2)
T5 sequence: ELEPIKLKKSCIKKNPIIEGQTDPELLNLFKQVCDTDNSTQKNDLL

T6: AsaA 70th–110th aa fused to pBT (Acinetobacter baumannii ATCC 17978) (UniProt R9RHI2)
T6 sequence: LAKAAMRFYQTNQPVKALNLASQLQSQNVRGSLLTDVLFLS

T7: AsaA 70th–150th aa fused to pBT (Acinetobacter baumannii ATCC 17978) (UniProt R9RHI2)
T7 sequence: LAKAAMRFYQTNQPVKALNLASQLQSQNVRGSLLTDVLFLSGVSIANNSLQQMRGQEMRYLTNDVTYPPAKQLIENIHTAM

B1: TssB fused to pTRG (plasmid pTB) (protein, UniProt R9RIN9 1-167)
chain: MAKRESVQKKLQRIRPPRVQLTYDVEIGDAKEAKELPFVVGVMGDFSAASELERTKLKDKKFINVDLDNIDEVMESLSPRAAFQVDNTLTEEGGKMAVDLTFKSMEDFRPENVVQQVDPLKKLVEARERLTDLRNKISNSERLEDLLDEVLKNTDQIRKLSAEADHE
B2: TssL fused to pTRG (plasmid pTL) (protein, UniProt R9RHK3 1-268)
chain: MSQSTGAPSLFDDGQIGTGGNNNSQSQAKLQAINLIDLLHDGFYLIFLIRNQYVPADPQRFREKILDLLNRFEQQAKKLQFSADDIHDAKYAFCALIDETIVTQQDPSYFNLQNAWLISPLQLSLFGSQLAGYQFFEILEQLRSRGKDRLAALEVFHYCLLLGFQGKYRIESIESLNHLVARVGDEIDYLKGKKVAFSPFSAIPDQIRNIIHRELPFFWILIFLLIFALLTFAGLRFMLNNQNDKALSTYQNVISAPQEQAHITIYLP

What was measured:
Experiment in all cases: two-hybrid; BacterioMatch II bacterial two-hybrid system; AsaA or its fragments on pBT, partners on pTRG; XL1-Blue MRFʹ; growth on M9 His-dropout dual-selective medium with Sm (12.5 μg/ml) and 3-AT (5 mM), 30 °C, 24 h
[1] = molecular target: T1, AsaA 25th–110th aa fused to pBT (Acinetobacter baumannii ATCC 17978)
[2] = molecular target: T2, AsaA 110th–150th aa fused to pBT (Acinetobacter baumannii ATCC 17978)
[3] = molecular target: T3, AsaA 25th–150th aa fused to pBT (Acinetobacter baumannii ATCC 17978)
[4] = molecular target: T4, AsaA 25th–190th aa fused to pBT (Acinetobacter baumannii ATCC 17978)
[5] = molecular target: T5, AsaA 25th–70th aa fused to pBT (Acinetobacter baumannii ATCC 17978)
[6] = molecular target: T6, AsaA 70th–110th aa fused to pBT (Acinetobacter baumannii ATCC 17978)
[7] = molecular target: T7, AsaA 70th–150th aa fused to pBT (Acinetobacter baumannii ATCC 17978)
[8] = molecular target: AsaA excluding the N-terminal leader, fused to pBT (plasmid pBA) (Acinetobacter baumannii ATCC 17978)

| Molecule | binding [1] | binding [2] | binding [3] | binding [4] | binding [5] | binding [6] | binding [7] | binding [8] |
| --- | --- | --- | --- | --- | --- | --- | --- | --- |
| TssM_(1302(436–1041)) fused to pTRG (plasmid pTM_(1302(436–1041))) (Acinetobacter baumannii ATCC 17978) (domain or fragment) | no binding | no binding | binds | binds | no binding | no binding | binds |  |
| B1 |  |  |  |  |  |  |  | no binding |
| B2 |  |  |  |  |  |  |  | no binding |
